Data published in PMC5186903.
These are yes or no findings as the source states them, for the method shown. Binding seen in cells or lysates may run through a third protein. A result given as binding can be weak or reduced; the word gives no strength.

Legend:
[1] = molecular target: T1, MIC60 (mitofilin), core MICOS component (mouse (endogenous in mouse liver, heart, MEF and MAF mitochondria)) (UniProt Q8CAQ8); assay: co-IP; DSP-treated mitochondria, OPA1 co-immunoprecipitated with MIC60 (Figure S2B)
T1 sequence: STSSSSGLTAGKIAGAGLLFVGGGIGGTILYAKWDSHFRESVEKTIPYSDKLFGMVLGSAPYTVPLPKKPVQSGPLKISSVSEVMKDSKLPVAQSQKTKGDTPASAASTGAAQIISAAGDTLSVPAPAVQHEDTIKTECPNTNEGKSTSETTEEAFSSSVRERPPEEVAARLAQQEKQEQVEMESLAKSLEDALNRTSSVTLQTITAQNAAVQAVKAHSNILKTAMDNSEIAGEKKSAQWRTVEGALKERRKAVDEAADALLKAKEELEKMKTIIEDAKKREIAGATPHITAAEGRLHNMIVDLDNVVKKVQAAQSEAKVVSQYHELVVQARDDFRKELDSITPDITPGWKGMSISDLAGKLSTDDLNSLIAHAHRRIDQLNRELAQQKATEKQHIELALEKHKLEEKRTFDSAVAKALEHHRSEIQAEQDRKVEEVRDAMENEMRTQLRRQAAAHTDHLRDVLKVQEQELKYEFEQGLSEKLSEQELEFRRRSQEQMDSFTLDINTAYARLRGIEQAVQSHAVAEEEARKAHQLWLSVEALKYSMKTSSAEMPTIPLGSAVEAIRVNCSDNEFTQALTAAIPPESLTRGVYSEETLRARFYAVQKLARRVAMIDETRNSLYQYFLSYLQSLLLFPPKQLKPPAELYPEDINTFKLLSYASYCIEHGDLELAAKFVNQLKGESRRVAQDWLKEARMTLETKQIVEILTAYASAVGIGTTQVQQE

[2] = molecular target: T1, MIC60 (mitofilin), core MICOS component (mouse (endogenous in mouse liver, heart, MEF and MAF mitochondria)); assay: co-IP; mouse liver mitochondrial lysates (250 μg) immunoprecipitated with anti-MIC60 coupled to Protein A agarose beads; SDS-GE and immunoblot

**Q.** How did the binding [1] turn out when Optic atrophy 1 (OPA1) was run?
**A.** Its binding is “binds”.

**Q.** What about the binding [2] of the same substance?
**A.** Its binding is “binds”.
